Results from PubChem BioAssay AID200 (DTP/NCI, 2004).
The list shows only some results of the screen, not a fair sample: it gathers tests that were run many times, whatever their T/C, doses with no T/C, and many T/C values between a quarter and a half above the control. Further doses and runs are listed elsewhere. T/C: endpoint of the treated group in % of that of the vehicle group. Some doses have a count of surviving animals in place of a T/C: the source files T/C as zero there, which appears to mark a toxic dose or a test without result, not a measured value. Some survivor counts are full or nearly so, which does not show that the dose was tolerated: survival well below the control is almost never listed, so the zero probably covers shortened survival too. Survivors were counted at the toxicity check, usually on the fifth day, unless a day is given; later deaths do not show. Schedules are NCI's codes, taken here to give the interval after Q, in days (D) or hours (H), and the number of doses after X. Some doses were run more than once; the values are given in rising order. For survival time, this PubChem deposit counts one and a half times the control or more as active, and values a quarter to a half above the control carry no call in these data; other NCI protocols may use other cut-offs. Some T/C values carry the count of animals alive at the toxicity check (mostly the fifth day); without a count, all were alive then.

System: B6C3F1 mice, B16 melanoma ip, median survival T/C
Experiment: NCI In Vivo Anticancer Drug Screen. Data for tumor model B16 Melanoma (intraperitoneal) in B6C3F1 mice
Details: T/C endpoint: median survival time, higher T/C = longer survival
Summary of the method: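 Tumor-bearing mice received test compound; a separate group got vehicle only. Survival was then compared, with results reported as treated over control.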

[1] = dose: 10.0 mg/kg/injection, schedule: Q01DX009 (ip), vehicle: saline
[2] = dose: 25.0 mg/kg/injection, schedule: Q01DX009 (ip), vehicle: Klucel (hydroxypropylcellulose) (HPC)
[3] = dose: 200.0 mg/kg/injection, schedule: Q01DX009 (ip), vehicle: Klucel (hydroxypropylcellulose) (HPC)
[4] = dose: 50.0 mg/kg/injection, schedule: Q01DX009 (ip), vehicle: Klucel (hydroxypropylcellulose) (HPC)
[5] = dose: 100.0 mg/kg/injection, schedule: Q01DX009 (ip), vehicle: Klucel (hydroxypropylcellulose) (HPC)
[6] = dose: 400.0 mg/kg/injection, schedule: Q01DX009 (ip), vehicle: Klucel (hydroxypropylcellulose) (HPC)
[7] = dose: 100.0 mg/kg/injection, schedule: Q01DX009 (ip), vehicle: saline with Tween-80
[8] = dose: 100.0 mg/kg/injection, schedule: Q01DX009 (ip), vehicle: distilled water + Tween-80
[9] = dose: 200.0 mg/kg/injection, schedule: Q01DX009 (ip), vehicle: saline with Tween-80
[10] = dose: 400.0 mg/kg/injection, schedule: Q01DX009 (ip), vehicle: saline with Tween-80

Structure (SMILES): Cc1cc([NH-])c([NH-])cc1C.[Cl][Pt+2][Cl]
- T/C (dose: 2.5 mg/kg/injection, schedule: Q01DX009 (ip), vehicle: saline with Tween-80): 135 % of control
- T/C (dose: 5.0 mg/kg/injection, schedule: Q01DX009 (ip), vehicle: saline with Tween-80): 143 % of control
- survivor count (dose: 20.0 mg/kg/injection, schedule: Q01DX009 (ip), vehicle: saline with Tween-80): 10 of 10

Structure (SMILES): Cc1c2cc[n+](CCO)cc2c(C)c2c1[nH]c1ccc(O)cc12
- survivor count (dose: 1.25 mg/kg/injection, schedule: Q01DX009 (ip), vehicle: saline): 9 of 9
- survivor count (dose: 2.5 mg/kg/injection, schedule: Q01DX009 (ip), vehicle: saline): 8 of 8
- survivor count (dose: 5.0 mg/kg/injection, schedule: Q01DX009 (ip), vehicle: saline): 7 of 8
- survivor count [1]: 3 of 8

Structure (SMILES): CCCCCC[C@H]([C@H](C)O)n1cnc2c(N)ncnc21
- T/C (dose: 6.25 mg/kg/injection, schedule: Q01DX009 (ip), vehicle: Klucel (hydroxypropylcellulose) (HPC)): 143 % of control
- T/C [2]: 138 % of control
- survivor count [3]: 1 of 10

Structure (SMILES): CN1CCN(CCCN2c3ccccc3Sc3ccc(C(F)(F)F)cc32)CC1
- survivor count (dose: 64.0 mg/kg/injection, schedule: Q01DX009 (ip), vehicle: saline): 4 of 10

Structure (SMILES): Nc1c(/C=C/c2cc3cc(C4=NCCN4)ccc3o2)[nH]c2cc(C3=NCCN3)ccc12
- survivor count [4]: 4 of 10
- survivor count [5]: 6 of 10
- survivor count [3]: 0 of 10

Structure (SMILES): CC1=C(C(N)=O)C(c2ccccc2)NC(=S)N1 (configuration not stated)
- survivor count [6]: 8 of 10

Structure (SMILES): COc1cccc2c1C(=O)c1c(O)c3c(c(O)c1C2=O)C[C@@](O)(C(C)O)C[C@@H]3OC1CC(N2CCOCC2)C(O)C(C)O1 (some centres not stated)
- T/C (dose: 0.25 mg/kg/injection, schedule: Q01DX001 (ip), vehicle: water): 131 % of control
- survivor count (dose: 0.5 mg/kg/injection, schedule: Q01DX001 (ip), vehicle: water): 8 of 10
- survivor count (dose: 1.0 mg/kg/injection, schedule: Q01DX001 (ip), vehicle: water): 6 of 10
- survivor count (dose: 2.0 mg/kg/injection, schedule: Q01DX001 (ip), vehicle: water): 1 of 10
- survivor count (dose: 500.0 micrograms/kg/injection, schedule: Q01DX001 (ip), vehicle: water): 6 of 10

Structure (SMILES): CC1(C)CC(=O)C(CSC(=O)c2ccccc2)C(=O)C1
- survivor count [2]: 8 of 10 and 10 of 10
- survivor count [4]: 7 of 10 and 10 of 10
- survivor count [5]: 7 of 10

Structure (SMILES): C=C(C)[C@@H]1CCc2c(O)c(O)c(=O)cc(C)c2C1
- T/C (dose: 50.0 mg/kg/injection, schedule: Q01DX009 (ip), vehicle: saline): 131 % of control [8 of 9 alive]
- T/C [7]: 126 % of control
- T/C (dose: 100.0 mg/kg/injection, schedule: Q01DX009 (ip), vehicle: saline): 134 % of control
- survivor count (dose: 200.0 mg/kg/injection, schedule: Q01DX009 (ip), vehicle: saline): 10 of 10

Structure (SMILES): C[n+]1c(/C=C\C=C\N2CCCCC2)sc2ccccc21
- T/C (dose: 0.06 mg/kg/injection, schedule: Q01DX009 (ip), vehicle: Klucel (hydroxypropylcellulose) (HPC)): 126 % of control

Structure (SMILES): CC(C)NC(=O)OCc1c(COC(=O)NC(C)C)c(-c2ccc(Cl)c(Cl)c2)n2c1CCC2
- T/C (dose: 2.5 mg/kg/injection, schedule: Q01DX009 (ip), vehicle: Klucel (hydroxypropylcellulose) (HPC)): 126 % of control
- T/C (dose: 5.0 mg/kg/injection, schedule: Q01DX009 (ip), vehicle: Klucel (hydroxypropylcellulose) (HPC)): 134 % of control
- T/C (dose: 12.5 mg/kg/injection, schedule: Q01DX009 (ip), vehicle: distilled water + Tween-80): 186, 201, 222, 223 % of control
- T/C (dose: 25.0 mg/kg/injection, schedule: Q01DX009 (ip), vehicle: distilled water + Tween-80): 193, 241, 267, 310 % of control
- T/C (dose: 50.0 mg/kg/injection, schedule: Q01DX009 (ip), vehicle: distilled water + Tween-80): 126, 146, 210, 287 % of control
- T/C [8]: 103, 111, 112 % of control
- survivor count [8]: 10 of 10
- survivor count (dose: 200.0 mg/kg/injection, schedule: Q01DX009 (ip), vehicle: distilled water + Tween-80): 9 of 10 and 10 of 10

Structure (SMILES): CC(C)(O)/C=C/C(=O)[C@](C)(O)[C@H]1[C@H](O)C[C@@]2(C)[C@@H]3CC=C4[C@@H](C=C(O)C(=O)C4(C)C)[C@]3(C)C(=O)C[C@]12C
- survivor count (dose: 2.0 mg/kg/injection, schedule: Q01DX009 (ip), vehicle: water): 0 of 10
- survivor count (dose: 4.0 mg/kg/injection, schedule: Q01DX009 (ip), vehicle: water): 0 of 10

Structure (SMILES): CSCCC(NC(=O)CNC(=O)OCc1ccccc1)C(=O)O (configuration not stated)
- T/C [2]: 127 % of control

Structure (SMILES): O=[Te]=O
- survivor count (dose: 12.5 mg/kg/injection, schedule: Q01DX009 (ip), vehicle: saline): 8 of 10

Structure (SMILES): COc1cc(C(=O)c2cc3c(cc2C)OCO3)cc(OC)c1OC
- T/C [2]: 125 % of control
- T/C (dose: 100.0 mg/kg/injection, schedule: Q01DX009 (ip), vehicle: Klucel (hydroxypropylcellulose) (HPC), evaluated on day 40): 125 % of control
- T/C (dose: 100.0 mg/kg/injection, schedule: Q01DX009 (ip), vehicle: Klucel (hydroxypropylcellulose) (HPC), evaluated on day 60): 130 % of control
- survivor count [3]: 10 of 10

Structure (SMILES): O=S(O)O
- survivor count (dose: 800.0 mg/kg/injection, schedule: Q01DX009 (ip), vehicle: saline): 0 of 10

Structure (SMILES): O=C1NC(=O)C2C3C=CC(C12)C1C2C(=O)NC(=O)C2C31 (configuration not stated)
- T/C (dose: 50.0 mg/kg/injection, schedule: Q01DX009 (ip), vehicle: saline with Tween-80): 139 % of control
- survivor count (dose: 91.4 mg/kg/injection, schedule: Q01DX009 (ip), vehicle: water): 7 of 9
- survivor count [9]: 7 of 10 and 8 of 8
- survivor count [10]: 1 of 10 and 3 of 10

Structure (SMILES): Nc1nc2nc[nH]c2c(=O)[nH]1
- survivor count [9]: 10 of 10

Structure (SMILES): CN(C)CCc1ccc(O)cc1
- survivor count (dose: 400.0 mg/kg/injection, schedule: Q01DX009 (ip), vehicle: saline): 5 of 10

Structure (SMILES): CC[C@@]1(O)C[C@H](OC2CC(N(C)C)C(OC3CC(O)C(OC4CCC(=O)C(C)O4)C(C)O3)C(C)O2)c2c(cc3c(c2O)C(=O)c2c(O)cccc2C3=O)[C@H]1C(=O)OC (some centres not stated)
- T/C (dose: 0.75 mg/kg/injection, schedule: Q01DX009 (ip), vehicle: saline with Tween-80): 125 % of control
- T/C (dose: 1.5 mg/kg/injection, schedule: Q01DX009 (ip), vehicle: saline with Tween-80): 132 % of control

Structure (SMILES): O=C(O)CC1C(=O)OC2C3COC(=O)c4cc(O)c(O)c(O)c4-c4c(cc(O)c(O)c4O)C(=O)OC2C(OC(=O)c2cc(O)c(O)c4c2C1C(O)C(=O)O4)C(OC(=O)c1cc(O)c(O)c(O)c1)O3 (configuration not stated)
- survivor count (dose: 3.12 mg/kg/injection, schedule: Q01DX009 (ip), vehicle: saline): 10 of 10

Structure (SMILES): COc1cccc2c1C(=O)c1c(O)c3c(c(O)c1C2=O)C[C@@](O)(/C(C)=N/NC(N)=S)C[C@@H]3OC1CC(N)C(O)C(C)O1 (some centres not stated)
- survivor count (dose: 200.0 mg/kg/injection, schedule: Q01DX001 (ip), vehicle: water): 10 of 10

Structure (SMILES): C=C1C(=O)OC2CC(C)C3C4OC4C(O)C3(C)C(O)C12 (configuration not stated)
- survivor count (dose: 6.25 mg/kg/injection, schedule: Q01DX009 (ip), vehicle: saline): 6 of 10

Structure (SMILES): Cc1ccc2c(c1)C1(C)OC(C=CC1=O)O2 (configuration not stated)
- survivor count [4]: 8 of 10 and 9 of 10
- survivor count [5]: 0 of 10
- survivor count [3]: 0 of 10
- survivor count [6]: 0 of 10

Structure (SMILES): Nc1n[n+](-c2ccc(Cl)cc2)no1
- survivor count (dose: 50.0 mg/kg/injection, schedule: Q01DX009 (ip), vehicle: water): 9 of 10
- survivor count (dose: 100.0 mg/kg/injection, schedule: Q01DX009 (ip), vehicle: water): 0 of 10

Structure (SMILES): Nc1cc(Cl)c(N=Nc2ccccc2)c(N)n1
- survivor count [10]: 8 of 10

Structure (SMILES): O=NN(CCCl)C(=O)NC1[C@H](O)CCC[C@@H]1O (some centres not stated)
- survivor count [1]: 10 of 10
- survivor count (dose: 20.0 mg/kg/injection, schedule: Q01DX009 (ip), vehicle: saline): 10 of 10

Structure (SMILES): COc1ccccc1N=Nc1cc(S(=O)(=O)O)c2ccccc2c1O
- survivor count [7]: 10 of 10
- survivor count [10]: 0 of 10
